Bridges are numbered along the chain shown (N, C = ends). Roman numbers before positions name the chains, in order. [ ]: non-standard residue; d: D form. Dap = NC[C@H](N)C(=O)O

The data set in a line: Titration circular dichroism spectroscopy of endotoxin binding. The conditions noted are these: by CD. How it is done:
Circular dichroism (CD) spectroscopy can be used to determine the fractional percent of secondary structural elements present in a peptide preparation. Titration CD spectroscopy can be used to assess the effect of binding a ligand on the reorganization of peptide structure (You, Scarsdale, and Harris 1991; Sobel, Soler, et al 1992; Soler, Sobel and Harris 1992; Tyler-Cross, Sobel et al 1993; Tyler-Cross, Sobel, Marques et al, 1994). Thus, incremental amounts of endotoxin were added to a solution of TR3 CONST and the effect of binding endotoxin by the peptide was assessed by CD spectroscopy.
By CD, Tris Arg Helix #3 (constrained) is 18% helix in solution (20°C) but complexation with endotoxin increases the helix character of the peptide to nearly 50% (Figure 3). Note that binding of endotoxin is dose dependent and saturable.

Turning to “I: Ac-AEARARRAAARAARRAKKP[Dap]E-NH2 / II: Ac-AEARARRAAARAARRA / III: Ac-AEARARRAAARAARRA (amide I:18-II:C, I:20-III:C) [Tris Arg Helix #3 (constrained)]”, for the setting “complexation with endotoxin”, the helix character is around 50%. The helix (in solution (20°C), without endotoxin) stood at 18%.
